Source: patent publication US12460184B2, “Cell primed with CTGF-D4 and insulin or IGF-1 and use in methods for cardiac tissue repair” (University of Vermont and State Agriculture College, priority 2013, dated 2025)
At least one structure is not confirmed: it was looked up by name or label, or the drawing left a doubt.

Test system: adult rat CPCs
Assay: Signal transduction inhibitor studies, CPCs cultured in CdM
Format: cell-based
Details: 10 μM (each), 48 hrs
Description: Adult rat CPCs and cardiac fibroblasts were plated at 500 cells/cm^2 and cultured in their respective growth mediums. Three days after plating, the medium was removed, the wells were washed twice with PBS, and the cells were then exposed to CdM or to fresh serum-free medium (Alpha-MEM). For time course proliferation studies, CdM and serum-free medium were changed every 2 days. In signal transduction inhibitor studies, the following pharmacological inhibitors were used: AG490, inhibitor of Jak2/STAT3 pathway; Stattic, inhibitor of STAT3; LY294002, inhibitor of phosphatidylinositol 3-kinase (PI3K)/Akt pathway; and PD98059, inhibitor of extracellular signal-regulated kinase (ERK). All of the inhibitors were purchased from Calbiochem (Darmstadt, Germany) and were dissolved in dimethyl sulfoxide (DMSO). CPCs were cultured in CdM with the inhibitors or with the equivalent volume of DMSO as a control for 48 hrs. […] The hypoxia incubator was a model that measured both CO2 and O2 (Thermo Electron, Forma Series II, model 3130). Oxygen was maintained at 1% by the injection of nitrogen gas and was monitored continuously. Cell numbers were quantified by the fluorescent labeling of nucleic acids (CyQuant dye; Molecular Probes, Carlsbad, CA) and with a microplate fluorescence reader (FL×800; Bio-Tek Instruments Inc., Winooski, VT) set to 480 nm excitation and 520 nm emission. […]

Compound: O=c1cc(N2CCOCC2)oc2c(-c3ccccc3)cccc12 [LY294002]
- CPC number in CdM: decreased CPC number
